Experimental data as given in US20190125888A1, “TARGETED CONJUGATES AND PARTICLES AND FORMULATIONS THEREOF” (priority 2015, published 2019).
Read-outs that look alike come from different tables or passages of the source. The match of structure and compound is tentative.

The chains behind the UniProt entries cited, without tags or fusion partners.
UniProt P30874, whole entry: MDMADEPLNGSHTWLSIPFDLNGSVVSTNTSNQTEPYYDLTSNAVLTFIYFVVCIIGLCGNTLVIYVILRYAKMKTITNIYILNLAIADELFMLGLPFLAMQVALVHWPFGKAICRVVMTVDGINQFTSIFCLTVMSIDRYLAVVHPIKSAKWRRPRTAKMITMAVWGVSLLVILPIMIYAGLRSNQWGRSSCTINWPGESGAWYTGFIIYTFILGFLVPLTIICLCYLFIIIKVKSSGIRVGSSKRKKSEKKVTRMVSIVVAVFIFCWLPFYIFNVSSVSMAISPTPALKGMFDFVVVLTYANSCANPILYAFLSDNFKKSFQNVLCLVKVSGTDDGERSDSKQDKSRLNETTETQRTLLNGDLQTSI

Tests used:
[1] = test system: NCI-H524 (ATCC) human lung cancer cells; experiment: Inhibition of cell proliferation, CellTiter Glo, with and without octreotide competition; format: cell-based
Method: FIG. 1 is a graph of various conjugates represented as bars and showing on the Y-axis their activity in an H524 proliferation assay with and without competition by octreotide. […] This illustrates the suprprising finding that only maytansinoid conjugates show activity that is dependent on the receptor.
Conjugates were assessed in an in vitro assay evaluating inhibition of cell proliferation. NCI-H524 (ATCC) human lung cancer cells were plated in 96 well, V-bottomed plates (Costar) at a concentration of 5,000 cells/well and 24 hours later were treated with compound for 6 hours and further incubated 66 hours. Compound starting dose was 20 μM and three fold serial dilutions were done for a total of ten points. After 6 hours of treatment, cells were spun down, the drug containing media was removed, and fresh complete medium was added and used to resuspend the cells, which were spun again. […] Proliferation was measured using CellTiter Glo reagent using the standard protocol (Promega) and a Glomax multi+detection system (Promega). Percent proliferation inhibition was calculated using the following formula: % inhibition=(control-treatment)/control*100. […]
Conjugates were tested for their activity dependence on the somatostatin receptor. […] Proliferation IC50 values of the conjugates were measured. Proliferation IC50 values of the conjugates without octreotide competition were also measured. […]

[2] = target: human SSTR2 (Homo sapiens, UniProt P30874); experiment: Radioligand-receptor binding assay, [125I] somatostatin, membranes from SSTR2 expressing CHO-K1 cells; details: read-out: SSTR2 Ki; [125I] somatostatin 0.03 nM, four hour incubation, Cheng and Prusoff
[3] = Ligand charge of maytansinoid conjugates; format: physicochemical

CCCCCCNC(=O)[C@@H](NC(=O)[C@@H]1CSSC[C@H](NC(=O)[C@@H](Cc2ccccc2)NCCCSSCCC(=O)N(C)[C@@H](C)C(=O)O[C@@H]2CC(=O)N(C)c3cc(cc(OC)c3Cl)C/C(C)=C/C=C/[C@@H](OC)[C@@]3(O)C[C@H](OC(=O)N3)[C@@H](C)[C@@H]3O[C@@]23C)C(=O)N[C@@H](Cc2ccc(O)cc2)C(=O)N[C@H](Cc2c[nH]c3ccccc23)C(=O)N[C@@H](CCCCN)C(=O)N[C@@H]([C@@H](C)O)C(=O)N1)[C@@H](C)O
IC50 ([1]; read-out: H524 IC50 6 h, 6 hours treatment, further 66 hours incubation): 17 nM | IC50 ([1]; read-out: H524 IC50 with 100 μM octreotide 6 h, with 100 μM octreotide competition, 6 h treatment): 208 nM | Ki [2]: 0.15 nM | Ligand charge [3]: +2
